Experimental data taken from EP4763867A1 (Shanghai Mabgen Biotech Ltd., dated 2026).

Target: Biotinylated cynomolgus monkey PD-1 (AcroBiosystems, PD1-C82E6) (cynomolgus monkey)
Experiment: screening of a VHH yeast display library with biotinylated antigens

B1: A17 (VHH)
VHH: EVQVVESGGGLVQPGGSLRLSCVASGLTFSDYSMSWYRQAPGKERELVAIISGSGVIAHYVDSVKGRFTISRDNAKSTVYLQMVSLKPEDRGVYYCRAVSDWDDYWGQGTQVTVSS
notes: also called Variable region of A17
With B1 the binding was “binds”.

Results are given in words; binding and its absence hold for the method and conditions named. Binding calls can cover weak binding; strength is not graded here.
